Data from paper PMC10582465.
No constants are given. Whether binding was seen depends on the method and setting. In cells and extracts the contact can be indirect. Some entries that bind do so weakly or less than the wild type. For part of these data: Where a sequence is shown, tags or fusion partners need not be part of it. Values belong to the binder of their own block, whether it stands above or below them.

Sequences of proteins named here, by UniProt entry; tags and fusion partners are left off.
UniProt P19474: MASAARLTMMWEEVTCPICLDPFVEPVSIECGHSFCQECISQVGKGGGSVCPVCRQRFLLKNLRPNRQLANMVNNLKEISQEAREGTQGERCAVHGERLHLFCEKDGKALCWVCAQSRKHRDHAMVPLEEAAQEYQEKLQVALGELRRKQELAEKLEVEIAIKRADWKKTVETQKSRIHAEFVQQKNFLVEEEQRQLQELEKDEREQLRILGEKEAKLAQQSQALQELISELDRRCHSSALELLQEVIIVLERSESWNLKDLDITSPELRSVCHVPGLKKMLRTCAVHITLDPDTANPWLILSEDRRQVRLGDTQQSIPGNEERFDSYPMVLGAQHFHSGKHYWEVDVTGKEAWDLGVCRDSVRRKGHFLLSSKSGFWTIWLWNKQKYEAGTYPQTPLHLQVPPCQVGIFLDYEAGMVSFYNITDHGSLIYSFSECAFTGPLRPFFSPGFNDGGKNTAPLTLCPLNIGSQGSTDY

What was measured:
[1] = target: Flag-TRIM21 (in HEK293T) (human) (UniProt P19474); test: co-IP; HEK293T cells transfected with HA- and Flag-tagged plasmids; anti-Flag or anti-HA antibodies with Protein A/G magnetic beads, 4 °C overnight; IP lysis buffer 20 mM Tris-HCl pH 7.4, 1 mM EDTA, 150 mM NaCl, 1% NP-40; immunoblot
[2] = target: TRIM21, endogenous in MHCC-97H (human (endogenous in MHCC-97H)) (UniProt P19474); test: co-IP; endogenous proteins; MHCC-97H cell lysates immunoprecipitated with anti-TRIM21 antibodies, immunoblotted with anti-FSP1 antibodies
GST-TRIM21 (human) = GST-TRIM21 (human) (UniProt P19474); test: pull-down; GST, GST-FSP1 or GST-TRIM21 from bacteria on GST magnetic beads, incubated with cell lysate at 4 °C overnight; 50 mM Tris-HCl pH 7.4, 0.5% NP-40, 1 mM EDTA, 150 mM NaCl; immunoblot; only the target purified

binding [1]: binds
B1: HA-FSP1 (in HEK293T) (protein, UniProt Q9BRQ8 1-373)
chain: MGSQVSVESGALHVVIVGGGFGGIAAASQLQALNVPFMLVDMKDSFHHNVAALRASVETGFAKKTFISYSVTFKDNFRQGLVVGIDLKNQMVLLQGGEALPFSHLILATGSTGPFPGKFNEVSSQQAAIQAYEDMVRQVQRSRFIVVVGGGSAGVEMAAEIKTEYPEKEVTLIHSQVALADKELLPSVRQEVKEILLRKGVQLLLSERVSNLEELPLNEYREYIKVQTDKGTEVATNLVILCTGIKINSSAYRKAFESRLASSGALRVNEHLQVEGHSNVYAIGDCADVRTPKMAYLAGLHANIAVANIVNSVKQRPLQAYKPGALTFLLSMGRNDGVGQISGFYVGRLMVRLTKSRDLFVSTSWKTMRQSPP

binding [2]: binds
B2: FSP1, endogenous in MHCC-97H (protein, UniProt Q9BRQ8 1-373)
chain: B1 chain

binding (GST-TRIM21 (human)): binds
B3: FSP1 of the cell lysate used in the GST pull-down (protein, UniProt Q9BRQ8 1-373)
chain: B1 chain
